# Results taken from patent US12098139B2, “Chemokine receptor modulators and uses thereof” (RAPT Therapeutics, Inc., priority 2018, dated 2024).
# For at least one compound, name, drawing or mass did not settle the structure.
# Tested on: ovalbumin-induced pulmonary inflammation
# Experiment: Murine model of ovalbumin-induced pulmonary inflammation (BALF cell counts and mediators)
# Format: in vivo, mouse (female Balb/c)
# Conditions: 3 mg/kg p.o.; vs OVA group (FIG. 3)
# Method: A study was performed to investigate the effects of daily oral administration of the compound 2-((R)-3-(1-(1-((R)-1-(2,4-Dichlorophenyl)ethyl)-3-(cyano)-1H-pyrazolo[3,4-b]pyrazin-6-yl)azetidin-3-yl)piperidin-1-yl)ethan-1-ol (FLX-A-12) (disclosed in US Patent Publication 2018-0072740 published Mar. 15, 2018) and the compound (1R,3r)-3-((R)-3-(1-(5-chloro-4-(((R)-1-(2,4-dichlorophenyl)ethyl)amino)-6-methylpyrimidin-2-yl)azetidin-3-yl)piperidin-1-yl)-1-methylcyclobutane-1-carboxylic acid (FLX-B-10) (disclosed in Example 38 herein) on the level of lung eosinophilia in a murine model of ovalbumin-induced pulmonary inflammation. […] FLX-A-12 and FLX-B-10 were administered daily for five days at the doses of 50 and 30-100 mg/kg respectively, and eosinophilic inflammation was measured 24 hours after the last ovalbumin challenge. […]
# The effects of FLX-A-12 and FLX-B-10 were assessed in the ovalbumin mouse model of pulmonary inflammation. […]
# The eosinophilic inflammation induced by ovalbumin-challenge (i.n.) was measured as cell count increase in bronchoalveolar lavage fluid (BALF) using an automated system of haematological cellular analysis (DASIT Sysmex XT-2000iV) at 24 hours after the last OVA-challenge. The effects of the test compounds were evaluated as ability to decrease the eosinophilic inflammation with respect to the OVA group. […]
smiles,measurement,value
"C[C@@H]1C[C@H]2[C@@H]3CCC4=CC(=O)C=C[C@]4(C)[C@@]3(F)[C@@H](O)C[C@]2(C)[C@@]1(O)C(=O)CO [Dexamethasone, dexamethasone, reference compound]",IL-5 levels in BALF,significantly reduced
